# Results: the supplement of paper PMC4604168 (melanoma cell lines)
# Some of the results follow. Repeats are few or missing, and single values can be far off.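 The apoptosis fraction was the count of cleaved-PARP antibody-stained nuclei relative to all DNA-stained nuclei, imaged in 1,536-well plates. Screening doses were set so most cells survived, and baseline and induced cleaved-PARP levels vary greatly across cell lines.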
# System: IST-MEL1
# Assay: cleaved PARP positive nuclei fraction relative to DMSO control; melanoma cells; higher = more apoptosis
# Details: library dose: low library concentration; 72 h
row,Structure (SMILES),cleaved PARP positive nuclei fraction [%]
1,"CC1(C)NC(=O)N(c2ccc([N+](=O)[O-])c(C(F)(F)F)c2)C1=O [nilutamide] + COc1ccc(COc2ccc(Cc3cnc(N)nc3N)cc2OC)cc1 [GW2580] (first compound 1 µM, partner dose 1 µM)",159
2,"COCC[n+]1c2c(n(Cc3cnccn3)c1C)C(=O)c1ccccc1C2=O + CCc1ccc(CCOc2ccc(CC3SC(=O)NC3=O)cc2)nc1 [pioglitazone] (first compound 0.0004 µM, partner dose 2 µM)",79.9
3,"O=C(CCCCCCC(=O)Nc1ccccc1)NO [vorinostat] + COc1ccc(-c2ccc3c(N4CCOCC4)nc(N4C[C@@H](C)O[C@@H](C)C4)nc3n2)cc1CO [KU0063794] (first compound 0.08 µM, partner dose 0.02 µM)",112
4,"COc1cc(Nc2ncc(F)c(Nc3ccc4c(n3)NC(=O)C(C)(C)O4)n2)cc(OC)c1OC [Tamatinib] + O=S(=O)(c1ccccc1)N(CC(F)(F)F)c1ccc(C(O)(C(F)(F)F)C(F)(F)F)cc1 [T0901317] (first compound 0.4 µM, partner dose 1.4 µM)",62.2
5,"NC(=O)Nc1cc(-c2cccc(F)c2)sc1C(=O)N[C@H]1CCCNC1 + O=S(=O)(c1ccccc1)N(CC(F)(F)F)c1ccc(C(O)(C(F)(F)F)C(F)(F)F)cc1 [T0901317] (first compound 0.02 µM, partner dose 1.4 µM)",145
6,"Cn1nnc2c(C(N)=O)ncn2c1=O [temozolomide] + COc1ccc(-c2ccc3c(N4CCOCC4)nc(N4C[C@@H](C)O[C@@H](C)C4)nc3n2)cc1CO [KU0063794] (first compound 2 µM, partner dose 0.02 µM)",122
7,"Nc1cccc2c1CN(C1CCC(=O)NC1=O)C2=O (stereo not given) [lenalidomide] + c1cc(-c2cnn3cc(-c4ccc(OCCN5CCCCC5)cc4)cnc23)ccn1 [Dorsomorphin] (first compound 1 µM, partner dose 0.4 µM)",138
8,"Cn1cncc1[C@@](N)(c1ccc(Cl)cc1)c1ccc2c(c1)c(-c1cccc(Cl)c1)cc(=O)n2C [tipifarnib] + c1cc(-c2cnn3cc(-c4ccc(OCCN5CCCCC5)cc4)cnc23)ccn1 [Dorsomorphin] (first compound 0.01 µM, partner dose 0.4 µM)",89.8
9,"Cc1cc(N2CCOCC2)cc2[nH]c(-c3c(NC[C@@H](O)c4cccc(Cl)c4)cc[nH]c3=O)nc12 + Cn1cc(/C=C2\C(=O)Nc3cccnc32)c2ccccc21 [GW441756] (first compound 0.2 µM, partner dose 0.4 µM)",75.6
10,"Cn1c(Nc2ccc(C(F)(F)F)cc2)nc2cc(Oc3ccnc(-c4ncc(C(F)(F)F)[nH]4)c3)ccc21 + Oc1nc(-c2ccc(C(F)(F)F)cc2)nc2c1CSCC2 [XAV939] (first compound 0.08 µM, partner dose 2 µM)",50.5
11,"Cn1nnc2c(C(N)=O)ncn2c1=O [temozolomide] + CC(C)CCN1c2nc(Nc3cc(F)c(O)c(F)c3)ncc2N(C)C(=O)C1C [BID1870] (first compound 2 µM, partner dose 0.2 µM)",88.5
12,"C[C@]1(c2nc3c(C(N)=O)cccc3[nH]2)CCCN1 [Veliparib] + O=C(O)C(=O)Nc1sc2c(c1C(=O)O)CCNC2 [TCS401] (first compound 1.4 µM, partner dose 1.66667 µM)",46.7
13,"O=C(Nc1cccc(Cl)c1)Nc1ncc(CCNc2ncnc3ccsc23)s1 + COc1cc2ncnc(Nc3ccc(Oc4ccccc4)cc3)c2cc1OC [SrcI1] (first compound 0.0008 µM, partner dose 2 µM)",39.9
14,"NC(=O)Nc1cc(-c2cccc(F)c2)sc1C(=O)N[C@H]1CCCNC1 + O=c1cc(-c2cccc3c2Sc2ccccc2S3)oc(N2CCOCC2)c1 [KU55933] (first compound 0.02 µM, partner dose 1 µM)",63.9
15,"CC(C)(C)c1cnc(CSc2cnc(NC(=O)C3CCNCC3)s2)o1 + N#Cc1c(O)c2c(-c3ccc(-c4ccccc4O)cc3)csc2[nH]c1=O [A769662] (first compound 0.01 µM, partner dose 2 µM)",28.9

# From no. 3 to 4, copied from above:
row,Structure (SMILES),cleaved PARP positive nuclei fraction [%]
3,"O=C(CCCCCCC(=O)Nc1ccccc1)NO [vorinostat] + COc1ccc(-c2ccc3c(N4CCOCC4)nc(N4C[C@@H](C)O[C@@H](C)C4)nc3n2)cc1CO [KU0063794] (first compound 0.08 µM, partner dose 0.02 µM)",112
4,"COc1cc(Nc2ncc(F)c(Nc3ccc4c(n3)NC(=O)C(C)(C)O4)n2)cc(OC)c1OC [Tamatinib] + O=S(=O)(c1ccccc1)N(CC(F)(F)F)c1ccc(C(O)(C(F)(F)F)C(F)(F)F)cc1 [T0901317] (first compound 0.4 µM, partner dose 1.4 µM)",62.2
